Where a name gives a salt, the structure may show the parent alone. The list shows a part of the results. This data set is noisy: repeats of one test often differ as much as different tests do.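 A first-round screen of about ten thousand compounds sought those raising reporter output, using human embryonic kidney cells briefly transfected with a plasmid carrying a Renilla luciferase gene driven by the HSV-TK promoter.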
Tested on: HEK 293FT
Assay: log relative Renilla luciferase luminescence (reporter expression vs reference, reference not stated) (log (base not stated)); higher = higher recombinant reporter expression
Conditions: 10 µM; time after transfection 48 h

For CCOc1cncc(/C=C/CCNC)c1 [TC 2559 difumarate], the log was -0.0108.

For COc1ccc(CCN2CCC(Nc3nc4ccccc4n3Cc3ccc(F)cc3)CC2)cc1 [Astemizole], the log was -0.0282.

C=CCN1CC[C@]2(C)c3cc(O)ccc3C[C@H]1C2C (single isomer, unassigned; (+)) gave a log of -0.0164.

CC(=O)NCCc1c[nH]c2ccccc12 [N-Acetyltryptamine] was tested, and the log was 0.072.

NCC(CS(=O)(=O)O)c1ccc(Cl)cc1 (stereo not given) [Saclofen] showed a log of 0.0505.

O=C1CN=C(c2cccc(Br)c2)c2oc3ccccc3c2N1 showed a log of -0.0323.

For c1ccc(CC(c2ccccc2)N2CCCCC2)cc1 (racemic) [(±)-1-(1,2-Diphenylethyl)piperidine maleate], the log was 0.13.

Compound c1ccc2sc(C3(N4CCCCC4)CCCCC3)cc2c1 [BTCP maleate] has a log of 0.00743.

Cc1onc(O)c1CC(N)C(=O)O (racemic) [(RS)-AMPA hydrobromide] showed a log of 0.0534.

CCOC(=O)c1ncn2c1CN(C)C(=O)c1cc(N=[N+]=[N-])ccc1-2 gave a log of -0.136.

Cc1ccc2c(c1)C1(CCN(CCc3nc(-c4ccccc4)oc3C)CC1)OC(=O)N2 showed a log of -1.47.

For CC(=O)[C@H]1CC[C@H]2[C@@H]3CC[C@H]4C[C@](C)(O)CC[C@]4(C)[C@H]3CC[C@]12C [Ganaxolone], the log was -0.0437.

O=C1NC(=O)c2c1c1c3ccccc3n3c1c1c2c2ccccc2n1[C@H]1CC[C@@H]3O1 gave a log of -0.323.

In the case of NCC(O)c1ccc(O)cc1 (stereo not given) [Octopamine hydrochloride], the log is reported as 0.0863.

CCCN(C/C=C/I)C1CCc2ccc(O)cc2C1 (stereo not given) [7-Hydroxy-PIPAT maleate] was tested, and the log was -0.0585.
